This is one part of the list. These are further read-outs of the screen, such as a control signal, another cell line or another target. No call is given for them. The list favours compounds with an active or inconclusive main result. Potencies come from curve fits of mixed quality, noted in brackets.
Test: qHTS Assay for Modulators of Lamin A Splicing
Details: HeLa LMNA splicing GFP/RFP minigene ratio, 48 h
How it was run: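 Read-out is the ratio of GFP to DsRed2 object intensity, acquired by 488 nm laser-scanning cytometry on HeLa lamin A-EGFP minigene reporter cells. Compound incubation 48 hrs at 37 °C in Opti-MEM with 2% FBS; DMSO 0.5% final.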

[1] = measured here: RFP viability control channel
[2] = measured here: GFP splicing reporter channel

| SMILES | AC50 [1] | AC50 [2] |
| --- | --- | --- |
| CCOCCn1ccc2c(OCC(=O)Nc3cccc([N+](=O)[O-])c3)cccc2c1=O | 14.1 µM [falling, single point] |  |
| C=CC[n+]1c(-c2ccc(OCC)cc2)csc1NNC(=O)Nc1ccccc1 | 11.2 µM [rising, partial curve] |  |
| O=C(CNC(=O)OCc1ccccc1)Oc1cc2oc(=O)cc(-c3ccccc3)c2cc1Cl | 20 µM [rising, single point] |  |
| COc1ccccc1C(c1nnnn1Cc1ccccc1)N1CCN(c2nc3ccccc3s2)CC1 (stereo unspecified) | 11.2 µM [rising, partial curve] | 11.2 µM [rising, partial curve, poor fit] |
| CCCCOC(=O)Nc1cccc(C(C)=O)c1 | 3.98 µM [rising, single point] |  |
| CCOC(=O)c1c(-c2ccc(OCC)cc2)csc1NC(=O)CCN1C(=O)c2ccccc2C1=O | 6.31 µM [rising, single point] | 5.62 µM [rising, single point] |
| COc1cc(/C=N/Nc2nc(C)cc(=O)[nH]2)ccc1OC(=O)c1cccnc1 | 15.8 µM [rising, single point] |  |
| O=C1CSC(=Nc2ccccc2[N+](=O)[O-])N1 | 5.62 µM [falling, single point] |  |
| Cc1cccc(C)c1NC(=O)C(c1ccc([N+](=O)[O-])cc1)N(C)C(=O)c1ccccn1 (stereo unspecified) | 2.82 µM [rising, full curve, poor fit] |  |
| COc1ccc(-n2c(SCc3ccccc3)nc3c([nH]c4ccccc43)c2=O)cc1 | 8.91 µM [falling, partial curve] | 11.2 µM [falling, partial curve] |
| Cc1ccccc1NC(=O)c1ccc(Nc2c([N+](=O)[O-])cc([N+](=O)[O-])c3ccccc23)cc1 | 7.08 µM [rising, partial curve] |  |
| CCn1c2ccccc2c2cc(CN3CCN(S(C)(=O)=O)CC3)ccc21 | 31.6 µM [rising, single point] |  |
| OC[C@@H]1CCCN1Cc1nc(-c2cccs2)no1 | 2.24 µM [falling, partial curve] | 0.794 µM [falling, full curve, poor fit] |
| Clc1ccc(Cc2noc(CN3CCN(c4ccccc4)CC3)n2)c(Cl)c1 |  | 17.8 µM [rising, partial curve, poor fit] |
| Cc1cc(C)cc(C(=O)N2CC(=O)Nc3ccc(Br)cc3C2c2ccccc2)c1 (stereo unspecified) | 28.2 µM [falling, partial curve] |  |
| CCCc1[nH]nc2c1C(C1CC=CCC1)C(C#N)=C(N)O2 (stereo unspecified) | 11.2 µM [rising, partial curve] | 10 µM [rising, partial curve, poor fit] |

Some of the entries above, set out differently.
SMILES	AC50 [1]	AC50 [2]
OC[C@@H]1CCCN1Cc1nc(-c2cccs2)no1	2.24 µM [falling, partial curve]	0.794 µM [falling, full curve, poor fit]
Clc1ccc(Cc2noc(CN3CCN(c4ccccc4)CC3)n2)c(Cl)c1		17.8 µM [rising, partial curve, poor fit]
